Assay results published in publication PMC8972991.
These are yes or no findings as the source states them, for the method shown. Binding can be weak; no strength is given. For some assays here: Tags and fused reporters may be left off the sequences shown. For some assays here: In cells and extracts the contact can be indirect.

T1: StSN2-pGBKT7 (full-length StSN2, yeast two-hybrid bait fusion) (potato) (UniProt Q93X17)
T1 sequence: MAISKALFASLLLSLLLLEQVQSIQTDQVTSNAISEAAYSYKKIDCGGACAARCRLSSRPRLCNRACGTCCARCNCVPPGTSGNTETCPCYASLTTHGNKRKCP


Assays:
[1] = target: T1, StSN2-pGBKT7 (full-length StSN2, yeast two-hybrid bait fusion) (potato); assay: two-hybrid; StSN2-pGBKT7 and StGAPC1-pGADT7 cotransformed into yeast AH109; growth on SD/-Leu-Trp-His plates
[2] = target: Cytoplasmic glyceraldehyde-3-phosphate dehydrogenase 1 (StGAPC1) (potato (endogenous in tubers)); assay: co-IP; tuber total protein, 10 ul purified anti-GAPC1 antibody and 20 ul protein A beads, overnight at 4°C; western blot

| binding [1] | binding [2] | Molecule |
| --- | --- | --- |
| binds |  | StGAPC1-pGADT7 (yeast two-hybrid prey fusion) (potato) (enzyme) |
|  | binds | Snakin-2 (StSN2) (protein, UniProt Q93X17 39-104) YSYKKIDCGGACAARCRLSSRPRLCNRACGTCCARCNCVPPGTSGNTETCPCYASLTTHGNKRKCP |
